PubChem BioAssay AID1159578 – Peter MacCallum Cancer Centre, 2015

Screen: 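siRNA pools altering how lymphatic endothelial cells close a scratch wound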 (primary screen)
Cells: human lymphatic endothelial cells
Reagents: siRNA pool against human genes, 40 nM
Duration: 48 h after transfection
Measurement: 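Cells stained with dye and imaged after a scratch; covered wound area and nuclei counted, duplicates averaged, migration set against mock wells and turned into a robust z-score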
Scale: migration robust z-score: higher = faster migration into the scratch; migration relative to mock: higher = more scratch area covered than mock; nuclei per well: higher = more cells in the well
Call rule: 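Pools averaging fewer than 3300 nuclei are never called; remaining pools count as changed when migration robust z lies outside -2 to 2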
Calls: active = migration changed; inactive = no migration change, or too few cells
This is an unselected part of about 18,000 reagents. Of all reagents, about 1,030 (5.7%) got an active call. 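Inactive calls also include pools with fewer than 3300 nuclei, whose migration was not assessed.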 Raw values vary from plate to plate and are shown uncorrected. Unmarked entries are inactive.

target gene	migration robust z-score	migration class with cell-count check	migration relative to mock	nuclei per well, duplicate mean
RPS3A	0.52	migration z between -2 and 2; enough cells	1.02	4487
THOC6	0.5	migration z between -2 and 2; enough cells	1.02	6980
PTBP1	-1.09	migration z between -2 and 2; enough cells	0.6	4150
OR4X2	0.9	migration z between -2 and 2; enough cells	1.12	5048
OR6B2	0.9	migration z between -2 and 2; enough cells	1.12	5174
CRISP3	0.16	migration z between -2 and 2; enough cells	0.93	6107
NCAPD2	-0.55	migration z between -2 and 2; enough cells	0.74	6257
INSL3	1.01	migration z between -2 and 2; enough cells	1	5904
PPM1K	0.36	migration z between -2 and 2; enough cells	0.88	6607
TMEM245	0.26	migration z between -2 and 2; enough cells	0.95	6541
FLOT1	0.86	migration z between -2 and 2; enough cells	1.11	6203
H3C7	-0.26	migration z between -2 and 2; enough cells	0.82	4388
KCNC2	0.31	migration z between -2 and 2; enough cells	0.86	5263
C5orf15	1.15	migration z between -2 and 2; enough cells	1.19	5799
DEPDC4	0.46	migration z between -2 and 2; enough cells	1	5198
NPIPB7	-0.4	migration z between -2 and 2; enough cells	0.78	5492
RETREG2	-0.48	migration z between -2 and 2; enough cells	0.76	5400
FOLR3	-0.8	migration z between -2 and 2; enough cells	0.68	4890
OR3A4P	-1.21	migration z between -2 and 2; enough cells	0.57	4782
SELENOM	-0.52	migration z between -2 and 2; enough cells	0.75	5898
PARN	-0.32	migration z between -2 and 2; enough cells	0.74	5824
ABCG2	-0.13	migration z between -2 and 2; enough cells	0.78	6976

8 entries from above, sorted by “migration relative to mock”, lowest first.
target gene	migration robust z-score	migration class with cell-count check	migration relative to mock	nuclei per well, duplicate mean
PTBP1	-1.09	migration z between -2 and 2; enough cells	0.6	4150
NCAPD2	-0.55	migration z between -2 and 2; enough cells	0.74	6257
PPM1K	0.36	migration z between -2 and 2; enough cells	0.88	6607
CRISP3	0.16	migration z between -2 and 2; enough cells	0.93	6107
TMEM245	0.26	migration z between -2 and 2; enough cells	0.95	6541
INSL3	1.01	migration z between -2 and 2; enough cells	1	5904
OR4X2	0.9	migration z between -2 and 2; enough cells	1.12	5048
OR6B2	0.9	migration z between -2 and 2; enough cells	1.12	5174

The listing continues.
target gene	migration robust z-score	migration class with cell-count check	migration relative to mock	nuclei per well, duplicate mean
SOX30	1.14	migration z between -2 and 2; enough cells	1.18	5884
MS4A7	0.18	migration z between -2 and 2; enough cells	0.94	3792
CCR4	-0.68	migration z between -2 and 2; enough cells	0.68	6614
MYOT	0.3	migration z between -2 and 2; enough cells	0.97	5728
ISM2	-0.36	migration z between -2 and 2; enough cells	0.8	5816
RAB39A	0.4	migration z between -2 and 2; enough cells	0.98	5710
LBX1	0.86	migration z between -2 and 2; enough cells	0.97	6018
VSIG4	-0.4	migration z between -2 and 2; enough cells	0.78	5736
BTLA	-0.42	migration z between -2 and 2; enough cells	0.77	5492
EEF1E1	0.05	migration z between -2 and 2; enough cells	0.82	6102
KCNQ5	-0.05	migration z between -2 and 2; enough cells	0.8	5717
TPRG1L	2.14 (active)	migration z above 2; enough cells	1.44	4898
RAC1	0.08	migration z between -2 and 2; enough cells	0.82	5007
GREM1	-0.21	migration z between -2 and 2; enough cells	0.83	5078
MIA3	-1.86	migration z between -2 and 2; enough cells	0.4	6204
DHFR2	-0.78	migration z between -2 and 2; enough cells	0.68	5660
RALGAPA1	0.04	migration z between -2 and 2; enough cells	0.9	4949
CXCR2	-0.39	migration z between -2 and 2; enough cells	0.73	5604
TULP4	-0.13	migration z between -2 and 2; enough cells	0.78	5629
PRSS2	0	migration z between -2 and 2; enough cells	0.88	5186
NPY5R	-0.21	migration z between -2 and 2; enough cells	0.76	5854
MS4A1	0.12	migration z between -2 and 2; enough cells	0.92	5496
FIG4	1.56	migration z between -2 and 2; enough cells	1.29	5738
TRIM54	0.13	migration z between -2 and 2; enough cells	0.83	5144
FAM168A	-0.36	migration z between -2 and 2; enough cells	0.79	3826
EIF4E3	0.02	migration z between -2 and 2; enough cells	0.81	4885
PTGES3	1.27	migration z between -2 and 2; enough cells	1.05	3752
SMIM12	-0.56	migration z between -2 and 2; enough cells	0.74	6650
PSG9	1.01	migration z between -2 and 2; enough cells	1.15	5964
GSG1	-0.46	migration z between -2 and 2; enough cells	0.76	4765
RABGGTA	0.41	migration z between -2 and 2; enough cells	0.99	6006
SLC3A1	-0.2	migration z between -2 and 2; enough cells	0.76	3895
KCNE5	-0.39	migration z between -2 and 2; enough cells	0.73	5832
KIFC2	0.73	migration z between -2 and 2; enough cells	0.94	5117
SNAPC2	0.39	migration z between -2 and 2; enough cells	0.88	6367
